The text below walks through data of publication PMC9065044.

These are yes or no findings as the source states them, for the method shown. In cells and extracts the contact can be indirect. Some entries that bind do so weakly or less than the wild type.

In assay [1] the target is T1, POU domain, class 6, transcription factor 1 (POU6F1), endogenous (human (endogenous in A549)) (UniProt Q14863).
T1 sequence: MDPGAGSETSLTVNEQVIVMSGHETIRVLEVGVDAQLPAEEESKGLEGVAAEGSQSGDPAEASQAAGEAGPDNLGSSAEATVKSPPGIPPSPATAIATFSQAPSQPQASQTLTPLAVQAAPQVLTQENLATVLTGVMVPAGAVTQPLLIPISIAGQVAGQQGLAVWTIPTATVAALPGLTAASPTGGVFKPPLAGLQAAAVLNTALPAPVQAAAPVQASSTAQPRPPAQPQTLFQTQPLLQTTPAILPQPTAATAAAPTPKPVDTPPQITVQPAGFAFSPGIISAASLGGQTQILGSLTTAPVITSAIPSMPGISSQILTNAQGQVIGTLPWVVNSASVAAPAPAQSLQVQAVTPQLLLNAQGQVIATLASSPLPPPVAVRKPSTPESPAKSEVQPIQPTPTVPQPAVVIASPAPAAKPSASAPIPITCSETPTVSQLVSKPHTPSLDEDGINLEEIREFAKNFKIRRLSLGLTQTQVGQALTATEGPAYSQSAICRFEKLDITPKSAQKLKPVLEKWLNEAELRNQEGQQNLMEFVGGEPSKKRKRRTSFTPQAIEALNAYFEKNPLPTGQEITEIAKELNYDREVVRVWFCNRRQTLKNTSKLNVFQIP
Kind of assay: co-IP; endogenous proteins in A549 cells; IP followed by western blotting; IgG as negative control; which protein was precipitated is not told.

Assay [2] has as its target T2, POU6F1, overexpressed in A549 cells (mock or POU6F1) (human) (UniProt Q14863).
T2 sequence: T1 sequence
Nature of the assay: co-IP; A549 cells transfected with mock or POU6F1; co-IP and western blotting; which protein was precipitated is not told. Background: Immunoblotting shows a protein as a band on a membrane.

B1: Retinoid-related orphan receptor alpha (RORA), endogenous (protein, UniProt P35398 1-523)
chain: MESAPAAPDPAASEPGSSGADAAAGSRETPLNQESARKSEPPAPVRRQSYSSTSRGISVTKKTHTSQIEIIPCKICGDKSSGIHYGVITCEGCKGFFRRSQQSNATYSCPRQKNCLIDRTSRNRCQHCRLQKCLAVGMSRDAVKFGRMSKKQRDSLYAEVQKHRMQQQQRDHQQQPGEAEPLTPTYNISANGLTELHDDLSNYIDGHTPEGSKADSAVSSFYLDIQPSPDQSGLDINGIKPEPICDYTPASGFFPYCSFTNGETSPTVSMAELEHLAQNISKSHLETCQYLREELQQITWQTFLQEEIENYQNKQREVMWQLCAIKITEAIQYVVEFAKRIDGFMELCQNDQIVLLKAGSLEVVFIRMCRAFDSQNNTVYFDGKYASPDVFKSLGCEDFISFVFEFGKSLCSMHLTEDEIALFSAFVLMSADRSWLQEKVKIEKLQQKIQLALQHVLQKNHREDGILTKLICKVSTLRALCGRHTEKLMAFKAIYPDIVRLHFPPLYKELFTSEFEPAMQIDG
B1: the binding entry in assay [1] and in assay [2] was “binds” throughout.
